Results from article PMC5638853.
Results are given in words; binding and its absence hold for the method and conditions named. Binding seen in cells or lysates may run through a third protein. Binding calls can cover weak binding; strength is not graded here. Sequences can lack the tags named with a protein.

Biological target: T1, flag-tagged transmembrane protein 168 (flag-TMEM168) (mouse) (UniProt Q91VX9)
T1 sequence: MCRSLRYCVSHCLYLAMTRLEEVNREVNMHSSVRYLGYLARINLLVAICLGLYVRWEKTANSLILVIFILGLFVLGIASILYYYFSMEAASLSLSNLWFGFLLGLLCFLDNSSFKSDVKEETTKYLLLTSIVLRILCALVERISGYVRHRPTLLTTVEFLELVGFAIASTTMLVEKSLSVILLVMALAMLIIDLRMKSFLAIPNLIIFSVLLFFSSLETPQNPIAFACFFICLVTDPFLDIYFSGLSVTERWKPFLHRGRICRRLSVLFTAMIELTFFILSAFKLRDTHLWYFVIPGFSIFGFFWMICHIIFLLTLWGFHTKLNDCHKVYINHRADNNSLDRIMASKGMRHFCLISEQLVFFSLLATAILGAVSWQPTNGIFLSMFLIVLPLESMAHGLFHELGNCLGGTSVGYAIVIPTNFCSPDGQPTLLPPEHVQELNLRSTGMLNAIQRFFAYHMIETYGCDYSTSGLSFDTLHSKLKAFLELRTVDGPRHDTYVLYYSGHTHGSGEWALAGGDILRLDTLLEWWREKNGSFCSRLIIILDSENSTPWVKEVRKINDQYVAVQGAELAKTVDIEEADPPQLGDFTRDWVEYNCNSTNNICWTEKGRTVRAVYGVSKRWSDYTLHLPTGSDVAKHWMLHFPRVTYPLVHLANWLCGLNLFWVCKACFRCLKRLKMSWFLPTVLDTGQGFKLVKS
Assay: co-IP; total lysate of COS-7 cells transfected with flag-TMEM168; anti-flag antibody overnight at 4 °C, Protein G Sepharose for 3 h, 3 washes; western blot with anti-OPN

In the case of osteopontin (OPN), the binding is reported as “binds”.
